Measurements published in US20090004163.
Construct, isoform or probe ends are uncertain for at least one entry.

Chains of the proteins cited; added tags and fusions are not shown.
UniProt A8KBT9, entry or part of it: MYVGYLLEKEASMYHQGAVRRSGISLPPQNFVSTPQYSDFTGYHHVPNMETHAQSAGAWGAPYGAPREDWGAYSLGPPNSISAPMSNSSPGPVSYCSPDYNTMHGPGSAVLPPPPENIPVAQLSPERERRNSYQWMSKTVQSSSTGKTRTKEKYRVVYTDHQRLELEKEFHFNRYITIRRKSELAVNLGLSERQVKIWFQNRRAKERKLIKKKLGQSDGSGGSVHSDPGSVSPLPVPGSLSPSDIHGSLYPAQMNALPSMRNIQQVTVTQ

Target: Cdx4 (Danio rerio) (UniProt A8KBT9)
Test: EMSA
Details: wild-type binding implied by statement that F170L prevents binding; gel not shown in text; protein translated in vitro

GAGAAATTTATATTGT (double strand) [consensus cdx binding site probe]
binding result: binds
